This passage reports binding results from paper PMC4729865 (Nature Communications, 2016).

Experiment [1] deals with taxol-stabilized microtubules. The experiment can be described thus: co-sedimentation; purified Cep57 protein incubated with or without taxol-stabilized microtubules (1.0 μM) in BRB80 buffer; 100,000g for 10 min at 25 °C; supernatant and pellet; both purified.
For experiment [2], the target named is taxol-stabilized microtubules. The experiment in a line: co-sedimentation; GST-Cep57 (195-500; 0.1 μM) and Flag-Mad1 (0.05 μM) together, with or without taxol-stabilized microtubules (1.0 μM) in BRB80 buffer; supernatant and pellet; anti-Flag western blotting; both purified.
Experiment [3] concerns the target taxol-stabilized microtubules. The experiment can be described thus: condition: Flag-Cep57-12A 0.05 μM, microtubules 1.0 μM; co-sedimentation; purified Cep57 protein incubated with or without taxol-stabilized microtubules (1.0 μM) in BRB80 buffer; 100,000g for 10 min at 25 °C; supernatant and pellet; both purified.

These are yes or no findings as the source states them, for the method shown. For some of these results: A result given as binding can be weak or reduced; the word gives no strength. Where a sequence is shown, tags or fusion partners need not be part of it.

B1: Flag-Cep57 (natural protein, human, UniProt Q86XR8 1-500, looked up)
chain: MAAASVSAASGSHLSNSFAEPSRSNGSMVRHSSSPYVVYPSDKPFLNSDLRRSPSKPTLAYPESNSRAIFSALKNLQDKIRRLELERIQAEESVKTLSRETIEYKKVLDEQIQERENSKNEESKHNQELTSQLLAAENKCNLLEKQLEYMRNMIKHAEMERTSVLEKQVSLERERQHDQTHVQSQLEKLDLLEQEYNKLTTMQALAEKKMQELEAKLHEEEQERKRMQAKAAELQTGLETNRLIFEDKATPCVPNARRIKKKKSKPPEKKSSRNYFGAQPHYRLCLGDMPFVAGKSTSPSHAVVANVQLVLHLMKQHSKALCNDRVINSIPLAKQVSSRGGKSKKLSVTPPSSNGINEELSEVLQTLQDEFGQMSFDHQQLAKLIQESPTVELKDKLECELEALVGRMEAKANQITKVRKYQAQLEKQKLEKQKKELKATKKTLDEERNSSSRSGITGTTNKKDFMKLRPGEKRRKNLQLLKDMQSIQNSLQSSSLCWDY
notes: Cep57 (translokin), human; cDNA amplified from a HeLa cell cDNA library; also called purified Cep57 from HEK293T cells; source: HEK293T, purified (anti-Flag beads, 600 mM NaCl wash, eluted by 3 x Flag peptides); not shown: Flag, N-terminal, kept
B1: the binding result in experiment [1] is listed as “binds”.

B2: Flag-Mad1 (protein, UniProt Q9Y6D9 1-718)
chain: MEDLGENTMVLSTLRSLNNFISQRVEGGSGLDISTSAPGSLQMQYQQSMQLEERAEQIRSKSHLIQVEREKMQMELSHKRARVELERAASTSARNYEREVDRNQELLTRIRQLQEREAGAEEKMQEQLERNRQCQQNLDAASKRLREKEDSLAQAGETINALKGRISELQWSVMDQEMRVKRLESEKQELQEQLDLQHKKCQEANQKIQELQASQEARADHEQQIKDLEQKLSLQEQDAAIVKNMKSELVRLPRLERELKQLREESAHLREMRETNGLLQEELEGLQRKLGRQEKMQETLVGLELENERLLAKLQSWERLDQTMGLSIRTPEDLSRFVVELQQRELALKDKNSAVTSSARGLEKARQQLQEELRQVSGQLLEERKKRETHEALARRLQKRVLLLTKERDGMRAILGSYDSELTPAEYSPQLTRRMREAEDMVQKVHSHSAEMEAQLSQALEELGGQKQRADMLEMELKMLKSQSSSAEQSFLFSREEADTLRLKVEELEGERSRLEEEKRMLEAQLERRALQGDYDQSRTKVLHMSLNPTSVARQRLREDHSQLQAECERLRGLLRAMERGGTVPADLEAAAASLPSSKEVAELKKQVESAELKNQRLKEVFQTKIQEFRKACYTLTGYQIDITTENQYRLTSLYAEHPGDCLIFKATSPSGSKMQLLETEFSHTVGELIEVHLRRQDSIPAFLSSLTLELFSRQTVA
In the case of B2, the binding result in experiment [2] is reported as “no binding (tested: Flag-Mad1 0.05 μM, microtubules 1.0 μM)”.

B3: GST-Cep57 (195–500 amino acids) (domain or fragment, human, UniProt Q86XR8 195-500, looked up)
chain: EYNKLTTMQALAEKKMQELEAKLHEEEQERKRMQAKAAELQTGLETNRLIFEDKATPCVPNARRIKKKKSKPPEKKSSRNYFGAQPHYRLCLGDMPFVAGKSTSPSHAVVANVQLVLHLMKQHSKALCNDRVINSIPLAKQVSSRGGKSKKLSVTPPSSNGINEELSEVLQTLQDEFGQMSFDHQQLAKLIQESPTVELKDKLECELEALVGRMEAKANQITKVRKYQAQLEKQKLEKQKKELKATKKTLDEERNSSSRSGITGTTNKKDFMKLRPGEKRRKNLQLLKDMQSIQNSLQSSSLCWDY
notes: also called C terminus of Cep57; C-terminal Cep57; source: E. coli, purified (Glutathione Sepharose 4B); not shown: GST, N-terminal, kept
In the case of B3, the binding result in experiment [1] was “binds”.

B4: Flag-Cep57-12A (protein, UniProt Q86XR8 1-500)
chain: MAAASVSAASGSHLSNSFAEPSRSNGSMVRHSSSPYVVYPSDKPFLNSDLRRSPSKPTLAYPESNSRAIFSALKNLQDKIRRLELERIQAEESVKTLSRETIEYKKVLDEQIQERENSKNEESKHNQELTSQLLAAENKCNLLEKQLEYMRNMIKHAEMERTSVLEKQVSLERERQHDQTHVQSQLEKLDLLEQEYNKLTTMQALAEKKMQELEAKLHEEEQERKRMQAKAAELQTGLETNRLIFEDKATPCVPNARRIKKKKSKPPEKKSSRNYFGAQPHYRLCLGDMPFVAGKSTSPSHAVVANVQLVLHLMKQHSKALCNDRVINSIPLAKQVSSRGGKSKKLSVTPPSSNGINEELSEVLQTLQDEFGQMSFDHQQLAKLIQESPTVELKDKLECELEALVGRMEAKANQITKVRKYQAQLEKQKLEAQAAELAATAATLDEERNSSSRSGITGTTNKKDFMALAPGEAAAANLQLLKDMQSIQNSLQSSSLCWDY
With B4, the binding entry in experiment [3] was “no binding”.
